Reference: the supplement of paper PMC10338343
± gives the standard deviation. The entries are a selection whose mix differs from that of the whole data set. Many entries were measured with a wide error. This is one part of the list.

Tests used:
[1] = tested on: MILI (PIWIL2) piRISC loaded with L1MC piRNA (26 nt); test: pre-steady-state target cleavage rate (min^-1); higher = faster piRNA-guided slicing of the target; settings: guide: L1MC piRNA 5'p-UAACUAAAUACUAUGCAAGCUGUAGG
Method in brief: (§1)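 The pre-steady-state cleavage rate was obtained by Cleave-'n-Seq with a burst-and-steady-state fit. A transcribed, DNA-blocked target RNA library (0.1 nM) was mixed with 1 nM active affinity-purified piRISC carrying one synthetic guide, with or without 500 nM GTSF1 partner protein, in HEPES–potassium acetate buffer at 33 °C for 0–8 or 0–960 min. Uncleaved targets were sequenced and normalised to depth and to weakly complementary targets, with three trials pooled and k3 capped at 0.0001 min^-1.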

[2] = tested on: MIWI (PIWIL1) piRISC loaded with L1MC piRNA (30 nt); test: as above; settings: guide: L1MC piRNA 5'p-UAACUAAAUACUAUGCAAGCUGUAGGUCCU
Method in brief: as §1

[3] = tested on: EfPiwi piRISC loaded with L1MC piRNA (26 nt); test: pre-steady-state target cleavage rate (min^-1); guide: L1MC piRNA 5'p-UAACUAAAUACUAUGCAAGCUGUAGG; MIWI and MILI are mouse PIWI proteins and EfPiwi is from a freshwater sponge; tags in brackets are library labels; higher = faster piRNA-guided slicing of the target
Method in brief: as §1

[4] = auxiliary factor: none (no GTSF1)
[5] = auxiliary factor: 500 nM Ephydatia muelleri Gtsf1
[6] = auxiliary factor: 500 nM mouse GTSF1
[7] = auxiliary factor: none (no Gtsf1)

UCCUGCUACAGCAUGCAUAGUAUUUUCAAA
pre-steady-state target cleavage rate [1, 4]: 0.00127 ± 0.0065 | pre-steady-state target cleavage rate [2, 4]: 0.000881 ± 0.0093 | pre-steady-state target cleavage rate [3, 5]: 0.00206 ± 0.0025

UCCUCCUACAGCUUGCAUAGAUAUUACAAA
pre-steady-state target cleavage rate [1, 4]: 0.000751 ± 0.0066 | pre-steady-state target cleavage rate [2, 4]: 0.000715 ± 0.011 | pre-steady-state target cleavage rate [3, 5]: 0.00199 ± 0.0055

UCCUCGAUCAGCUUGCAUAGUAUUUAGUUA
pre-steady-state target cleavage rate [1, 6]: 0.316 ± 0.017 | pre-steady-state target cleavage rate [2, 6]: 1.58 ± 0.056 | pre-steady-state target cleavage rate [3, 5]: 0.121 ± 0.023

UCCUGGAUGUCGAACCAUACUAUUUACUUA
pre-steady-state target cleavage rate [1, 6]: 0.000222 ± 0.024 | pre-steady-state target cleavage rate [2, 6]: 0.000118 ± 0.035 | pre-steady-state target cleavage rate [3, 7]: 0.00023 ± 0.02

UCCUGGAACAGCUUGCAUACAUAAAUCAAA [g12:g23:cont:t1A]
pre-steady-state target cleavage rate [1, 4]: 0.000618 ± 0.0085 | pre-steady-state target cleavage rate [2, 4]: 0.000315 ± 0.012 | pre-steady-state target cleavage rate [3, 5]: 0.000434 ± 0.0084

UCCUCCUACAGCAAGCAUAGUAUUUAGAAA
pre-steady-state target cleavage rate [1, 4]: 0.00162 ± 0.004 | pre-steady-state target cleavage rate [2, 4]: 0.000794 ± 0.0058 | pre-steady-state target cleavage rate [3, 5]: 0.00443 ± 0.0036

UCCUGGAUGUCGAACGUUAGUAUUUAAGUUA
pre-steady-state target cleavage rate [1, 6]: 0.000411 ± 0.015 | pre-steady-state target cleavage rate [2, 6]: 0.000353 ± 0.015 | pre-steady-state target cleavage rate [3, 5]: 0.00035 ± 0.017

UCCUGGAUGUCGAUCAUAGUAUUUAGUUA
pre-steady-state target cleavage rate [1, 4]: 0.00113 ± 0.0037 | pre-steady-state target cleavage rate [2, 4]: 0.000611 ± 0.0073 | pre-steady-state target cleavage rate [3, 5]: 0.000492 ± 0.0073

UCCUGCUACUGCUUGCAUAGUAUUUUCAAA
pre-steady-state target cleavage rate [1, 4]: 0.000932 ± 0.0054 | pre-steady-state target cleavage rate [2, 4]: 0.00201 ± 0.0034 | pre-steady-state target cleavage rate [3, 5]: 0.0014 ± 0.0031

UCCUGGAUGUCGAACGAUAUAUUUAGUUA
pre-steady-state target cleavage rate [1, 6]: 0.000204 ± 0.022 | pre-steady-state target cleavage rate [2, 6]: 0.000125 ± 0.043 | pre-steady-state target cleavage rate [3, 7]: < 0.0001

UCCUGGAUGUCGAACCAGAGUAUUUAGUUA
pre-steady-state target cleavage rate [1, 4]: 0.000314 ± 0.011 | pre-steady-state target cleavage rate [2, 4]: 0.000307 ± 0.014 | pre-steady-state target cleavage rate [3, 5]: < 0.0001

UCCUGGAACAGCUUGCAUAGUUAUUAGAAA
pre-steady-state target cleavage rate [1, 4]: 0.000957 ± 0.0063 | pre-steady-state target cleavage rate [2, 4]: 0.00176 ± 0.0046 | pre-steady-state target cleavage rate [3, 5]: 0.00355 ± 0.0039

UCCUGGAUGUGCUUGCAUAGUCAUUUAGUUA
pre-steady-state target cleavage rate [1, 4]: 0.00292 ± 0.0036 | pre-steady-state target cleavage rate [2, 4]: 0.00295 ± 0.004 | pre-steady-state target cleavage rate [3, 5]: 0.000435 ± 0.0075

UCCUGGAUGUCCUUGCAUAGUAUAAUGUAA
pre-steady-state target cleavage rate [1, 4]: 0.000595 ± 0.011 | pre-steady-state target cleavage rate [2, 4]: 0.000565 ± 0.018 | pre-steady-state target cleavage rate [3, 5]: 0.000222 ± 0.015

UCCUGGUACAGCUACCAUAGUAUUUUCAAA
pre-steady-state target cleavage rate [1, 4]: 0.000871 ± 0.0081 | pre-steady-state target cleavage rate [2, 4]: 0.000363 ± 0.017 | pre-steady-state target cleavage rate [3, 5]: 0.00119 ± 0.0048

UCCUCCUACAGCUUGCAUAGUUAAAUCAAA [g10:g26:cont:t1A]
pre-steady-state target cleavage rate [1, 4]: 0.000702 ± 0.0072 | pre-steady-state target cleavage rate [2, 4]: 0.000734 ± 0.0091 | pre-steady-state target cleavage rate [3, 5]: 0.00137 ± 0.0047

UCCUGGUACAGGAUGCAUAGUAUUUACAAA
pre-steady-state target cleavage rate [1, 4]: 0.000899 ± 0.0053 | pre-steady-state target cleavage rate [2, 4]: 0.000563 ± 0.011 | pre-steady-state target cleavage rate [3, 5]: 0.000937 ± 0.0053

UCCUGGAACAGCUACGAUAGUAUUUAGUAA
pre-steady-state target cleavage rate [1, 4]: 0.000579 ± 0.0073 | pre-steady-state target cleavage rate [2, 4]: 0.000337 ± 0.0086 | pre-steady-state target cleavage rate [3, 5]: 0.000324 ± 0.01

UCCUCCUACAGCAAGCAUAGUAUUUAGUAA
pre-steady-state target cleavage rate [1, 4]: 0.00281 ± 0.0029 | pre-steady-state target cleavage rate [2, 4]: 0.00166 ± 0.0032 | pre-steady-state target cleavage rate [3, 5]: 0.00371 ± 0.0026
